Laboratory results taken from the supplement of paper PMC9938546.
Where a name gives a salt, the structure may show the parent alone. Some of the results follow. Baselines shift from plate to plate; read single values as rough.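 HCT116-GFP is a human colorectal cancer cell line that carries a KRAS mutation, is microsatellite-unstable and always makes green fluorescent protein; the immune cells came from healthy donors. Live-cell imaging of the green signal stood in for cancer cell survival, and activated immune cells alone cut survival to about half.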

Each compound was assayed on HCT116-GFP (assay: HCT116-GFP viability (GFP intensity) relative to untreated HCT116-GFP monoculture control, co-culture with activated PBMCs; higher = less cancer cell killing). Conditions: culture: co-culture with anti-CD3/IL2 activated PBMCs 1:1; 10 µM; 72 h.
`CC(C)c1c(CN(C)C(C)Cc2ccccc2)n(C)n(-c2ccccc2)c1=O` (centres undefined) [Famprofazone] was tested, and the HCT116-GFP viability was 66.9%. `C=C(C)[C@@H]1[C@H]2OC(=O)[C@@H]1[C@]1(O)C[C@H]3O[C@]34C(=O)O[C@H]2[C@]14C` [Picrotoxinin] was tested, and the HCT116-GFP viability was 76.9%. Compound `CC(=O)OCC(=O)[C@H]1CC[C@H]2[C@@H]3CC[C@H]4C[C@H](O)CC[C@]4(C)[C@H]3C(=O)C[C@]12C` [Alfadolone acetate] has an HCT116-GFP viability of 42.5%. `C[C@]12CC[C@@H]3c4ccc(OC(=O)N(CCCl)CCCl)cc4CC[C@H]3[C@@H]1CC[C@@H]2O` [Estramustine] showed an HCT116-GFP viability of 10.8%. Work on `CN(C)C(=O)Oc1cc(OC(=O)N(C)C)cc(C(O)CNC(C)(C)C)c1` (centres undefined) [Bambuterol hydrochloride] yielded an HCT116-GFP viability of 33.9%. Work on `CCn1cc(C(=O)O)c(=O)c2cc3c(cc21)OCO3` [Oxolinic acid] yielded an HCT116-GFP viability of 44%. `C[C@]12CC[C@H](O)C[C@@H]1CC[C@@H]1[C@@H]2CC[C@]2(C)C(=O)CC[C@@H]12` [Epiandrosterone] showed an HCT116-GFP viability of 49.6%. Work on `CCC1(c2ccc(N)cc2)CCC(=O)NC1=O` (centres undefined) [Glutethimide, para-amino] yielded an HCT116-GFP viability of 44.3%. In the case of `CCN(C)C(=O)Oc1cccc([C@H](C)N(C)C)c1` [Rivastigmine], the HCT116-GFP viability is reported as 34.4%. In the case of `CC[C@@]1([C@@H]2O[C@@H]([C@H]3O[C@@](O)(CO)[C@H](C)C[C@@H]3C)C[C@@H]2C)CC[C@H]([C@]2(C)CC[C@]3(C[C@H](O)[C@@H](C)[C@@H]([C@@H](C)[C@@H](OC)[C@H](C)C(=O)O)O3)O2)O1` [Monensin sodium salt], the HCT116-GFP viability is reported as 20.3%. `CN1[C@@H]2CC[C@H]1C[C@@H](OC1c3ccccc3CCc3ccccc31)C2` [Deptropine citrate] showed an HCT116-GFP viability of 45.9%. With `NCC(O)c1ccc(O)cc1` (racemic) [(+,-)-Octopamine hydrochloride] the HCT116-GFP viability was 71.2%. In the case of `COc1ccc(Cc2nccc3cc(OC)c(OC)cc23)cc1OC` [Papaverine hydrochloride], the HCT116-GFP viability is reported as 34.2%. Work on `CCC1(CC)C(=O)C=CNC1=O` [Pyrithyldione] yielded an HCT116-GFP viability of 73.9%. `CC(C)(C)NCC(O)c1cc(Cl)c(N)c(Cl)c1` (centres undefined) [Clenbuterol hydrochloride] showed an HCT116-GFP viability of 64.6%. `Fc1ccc(C(OCCN2CCN(CCCc3ccccc3)CC2)c2ccc(F)cc2)cc1` was tested, and the HCT116-GFP viability was 7.15%. Work on `COc1ccc(CCN2CCC(Nc3nc4ccccc4n3Cc3ccc(F)cc3)CC2)cc1` [Astemizole] yielded an HCT116-GFP viability of 1.91%. With `CC(=O)O[C@H]1C[C@H](O[C@H]2[C@@H](O)C[C@H](O[C@H]3[C@@H](O)C[C@H](O[C@H]4CC[C@@]5(C)[C@H](CC[C@@H]6[C@@H]5C[C@@H](O)[C@]5(C)[C@@H](C7=CC(=O)OC7)CC[C@]65O)C4)O[C@@H]3C)O[C@@H]2C)O[C@H](C)[C@H]1O[C@@H]1O[C@H](CO)[C@@H](O)[C@H](O)[C@H]1O` [Lanatoside C] the HCT116-GFP viability was 2.84%. For `C[N+]1([O-])[C@@H]2C[C@@H](OC(=O)[C@H](CO)c3ccccc3)C[C@H]1[C@@H]1O[C@@H]12` (some centres undefined) [Scopolamin-N-oxide hydrobromide], the HCT116-GFP viability was 50%. Compound `C[C@]12N[C@H](Cc3ccccc31)c1ccccc12` [Dizocilpine maleate] has an HCT116-GFP viability of 49.4%. Work on `CCN(CC)C(C)C(=O)c1ccccc1` (centres undefined) [Amfepramone hydrochloride] yielded an HCT116-GFP viability of 55.7%. Work on `O[C@@H]1CCCC[C@H]1N1CCC(c2ccccc2)CC1` [L(-)-vesamicol hydrochloride] yielded an HCT116-GFP viability of 75%. With `Oc1cc(Cl)ccc1Oc1ccc(Cl)cc1Cl` [Triclosan] the HCT116-GFP viability was 19.7%. Compound `COc1ccc(CCN)cc1OC` [Homoveratrylamine] has an HCT116-GFP viability of 66.7%. For `CCCN1C[C@H](CSC)C[C@@H]2c3cccc4[nH]cc(c34)C[C@H]21` [Pergolide mesylate], the HCT116-GFP viability was 55.6%. `CCC(=O)O[C@@](Cc1ccccc1)(c1ccccc1)[C@@H](C)CN(C)C` [Levopropoxyphene napsylate] was tested, and the HCT116-GFP viability was 51.1%. With `CC[C@@]1(O)C(=O)OCc2c1cc1n(c2=O)Cc2cc3ccccc3nc2-1` [Camptothecine (S,+)] the HCT116-GFP viability was 3.5%. For `COc1cccc(C2(O)CCCCC2CN(C)C)c1` (centres undefined) [Tramadol hydrochloride], the HCT116-GFP viability was 90.2%. In the case of `CC(CCc1ccccc1)NC(C)C(O)c1ccc(O)cc1` (centres undefined) [Nylidrin], the HCT116-GFP viability is reported as 64.1%. For `CC(=O)OC1CN2CCC1CC2` (centres undefined) [Aceclidine Hydrochloride], the HCT116-GFP viability was 41.5%. `c1ccc2nc(N3CCNCC3)ccc2c1` [Quipazine dimaleate salt] gave an HCT116-GFP viability of 63%. Compound `C[N+](C)(C)CCCCCCCCCC[N+](C)(C)C` [Decamethonium bromide] has an HCT116-GFP viability of 30.7%. Compound `CN1C[C@H](C(=O)N[C@]2(C)O[C@@]3(O)[C@@H]4CCCN4C(=O)[C@H](Cc4ccccc4)N3C2=O)C[C@@H]2c3cccc4[nH]cc(c34)C[C@H]21` [Dihydroergotamine tartrate] has an HCT116-GFP viability of 77.2%. In the case of `C[N+]1(C)[C@@H]2CC[C@H]1C[C@@H](OC(=O)C(CO)c1ccccc1)C2` (some centres undefined) [Methylatropine nitrate], the HCT116-GFP viability is reported as 77%. For `CCN[C@@H](C)Cc1cccc(C(F)(F)F)c1` [Dexfenfluramine hydrochloride], the HCT116-GFP viability was 45%. Work on `C[N+]1(C)CCOC(O)(c2ccc(-c3ccc(C4(O)C[N+](C)(C)CCO4)cc3)cc2)C1` (centres undefined) [Hemicholinium bromide] yielded an HCT116-GFP viability of 49.1%. For `CC[C@H](C)[C@H]1O[C@]2(C=C[C@@H]1C)C[C@@H]1C[C@@H](C/C=C(\C)[C@@H](O[C@H]3C[C@H](OC)[C@@H](O[C@H]4C[C@H](OC)[C@@H](O)[C@H](C)O4)[C@H](C)O3)[C@@H](C)/C=C/C=C3\CO[C@@H]4[C@H](O)C(C)=C[C@@H](C(=O)O1)[C@]34O)O2.CO[C@H]1C[C@H](O[C@H]2[C@H](C)O[C@@H](O[C@@H]3/C(C)=C/C[C@@H]4C[C@@H](C[C@]5(C=C[C@H](C)[C@@H](C(C)C)O5)O4)OC(=O)[C@@H]4C=C(C)[C@@H](O)[C@H]5OC/C(=C\C=C\[C@@H]3C)[C@]54O)C[C@@H]2OC)O[C@@H](C)[C@@H]1O` [Avermectin B1], the HCT116-GFP viability was 25.9%. Compound `C[C@]12CCC(=O)C=C1CC[C@@H]1[C@@H]2C(=O)C[C@]2(C)C(=O)CC[C@@H]12` [Adrenosterone] has an HCT116-GFP viability of 78.3%. Work on `COc1ccc(C(=O)N2CCCC2=O)cc1` [Aniracetam] yielded an HCT116-GFP viability of 46.3%. `CC[C@@H](C(N)=O)N1CCCC1=O` [Levetiracetam] showed an HCT116-GFP viability of 43.9%. `O=c1[nH]c2ccccc2n1CCCN1CCC(n2c(=O)[nH]c3cc(Cl)ccc32)CC1` [Domperidone] gave an HCT116-GFP viability of 61.5%. `O=C([O-])c1ccccc1-c1c2cc(Br)c(=O)cc-2oc2[c]([Hg+])c([O-])c(Br)cc12.[Na+].[Na+].[OH-]` [Merbromin] showed an HCT116-GFP viability of 81.1%. Work on `CC(C)[N+](C)(CCC(C(N)=O)(c1ccccc1)c1ccccc1)C(C)C` [Isopropamide iodide] yielded an HCT116-GFP viability of 84.2%. `C#C[C@]1(O)CC[C@H]2[C@@H]3CCC4=CC(=O)CC[C@]4(C)[C@H]3CC[C@@]21C` [Ethisterone] showed an HCT116-GFP viability of 42.2%. In the case of `CC(C)CC(N(C)C)C1(c2ccc(Cl)cc2)CCC1` (centres undefined) [Sibutramine hydrochloride], the HCT116-GFP viability is reported as 56.3%. For `S=C(NC1CCCCC1)N1CCC(c2cnc[nH]2)CC1` [Thioperamide maleate], the HCT116-GFP viability was 60%. `COc1ccc2c(c1)[C@]13CCCC[C@@H]1[C@H](C2)N(C)CC3` [Dextromethorphan hydrobromide monohydrate] was tested, and the HCT116-GFP viability was 46.7%. For `C=CC[C@]1(O)CC[C@H]2[C@@H]3CCC4=CC(=O)CCC4=C3C=C[C@@]21C` [Altrenogest], the HCT116-GFP viability was 37.9%. In the case of `CC(Cc1ccc(O)cc1)NCC(O)c1cc(O)cc(O)c1` (centres undefined) [Fenoterol hydrobromide], the HCT116-GFP viability is reported as 53.6%. `C1CCc2nnnn2CC1` [Pentylenetetrazole] showed an HCT116-GFP viability of 31.1%. Work on `CNCC(O)c1ccc(O)cc1` (racemic) [(+,-)-Synephrine] yielded an HCT116-GFP viability of 84.9%. In the case of `C[C@]12CC[C@@H](O)C[C@@H]1CC[C@@H]1[C@@H]2CC[C@]2(C)C(=O)CC[C@@H]12` [Androsterone], the HCT116-GFP viability is reported as 34.2%. In the case of `O=[N+]([O-])O[C@@H]1CO[C@H]2[C@@H]1OC[C@@H]2O` [Isosorbide mononitrate], the HCT116-GFP viability is reported as 40.5%. `CC(C)N(CCC(C(N)=O)(c1ccccc1)c1ccccn1)C(C)C` (centres undefined) [Disopyramide] gave an HCT116-GFP viability of 42.5%. Work on `C[C@H](N)[C@H](O)c1ccc(O)c(O)c1` [Levonordefrin] yielded an HCT116-GFP viability of 82.6%. `CN1[C@@H]2CC[C@H]1C[C@@H](OC(=O)[C@H](CO)c1ccccc1)C2` [Hyoscyamine (L)] showed an HCT116-GFP viability of 56%. For `CN[C@@H]1C[C@@H](c2ccc(Cl)c(Cl)c2)c2ccccc21` [Indatraline hydrochloride], the HCT116-GFP viability was 36%. `COc1ccc(CN2CCNCC2)c(OC)c1OC` [Trimetazidine dihydrochloride] gave an HCT116-GFP viability of 46.2%. Compound `C[C@]12CC[C@H]3[C@@H](CCC4=CC(=O)CC[C@@H]43)[C@@H]1CC[C@@H]2O` [Nandrolone] has an HCT116-GFP viability of 49.3%.
